Article PMC9864808, “Exploring Mannosylpurines as Copper Chelators and Cholinesterase Inhibitors with Potential for Alzheimer’s Disease” (Pharmaceuticals, 2022)

Assay: UV-Visible chelating study, copper
Settings: UV-Visible absorption, ion up to 10 μM, water/DMSO
Description: The chelating activity of all purine nucleoside probes was evaluated by the UV-Visible method in order to determine compounds’ absorption spectra in the absence and in the presence of Cu^2+ at concentrations ranging from 1 μM to 10 μM. […] The resulting wavelength shift from λ = 280 to λ = 325 nm indicates a conformational rearrangement induced by interaction with Cu^2+.
UV-Visible spectroscopy offers the advantage of high sensitivity towards small changes that affect the electronic properties of ligand receptors, so absorption spectra of all reported compounds have been evaluated by recording UV-visible properties in subsequent conditions: 1.5 mL 1 × 10^−4M of the probe are added to 1.5 mL 2 × 10^−5M of each ion chloride salt’s solution (Copper Chloride (CuCl2), Zinc Chloride (ZnCl2), Iron (II) Chloride (FeCl2) and Aluminum Chloride (AlCl3)). A mixture of distilled water/DMSO 95:5 has been selected as a solvent for compounds 5–10 and 12. For compounds 14–16, the selected solvent was a mixture of distilled water/DMSO 90:10 due to poor water solubility. Furthermore, a titration assay of each compound has been carried out by adding increasing concentration of selected ion (final ion concentration = 1 µM, 2 µM, 3 µM, 5 µM, and 10 µM).
With CC(=O)O[C@@H]1[C@@H](OC(C)=O)[C@H](C)O[C@@H](n2cnc3c(NC(=O)c4ccccc4)ncnc32)[C@@H]1OC(C)=O [Compound 12, 6-benzamido-9-(6-deoxy-2,3,4-tri-O-acetyl-α-L-mannopyranosyl)purine] the “wavelength after shift induced by interaction with Cu^2+” value (shortened to “wavelength after shift induced”) was 325 nm. With C[C@@H]1O[C@H](n2cnc3c(NC(=O)c4ccccc4)ncnc32)[C@H](OCc2ccccc2)[C@H](OCc2ccccc2)[C@H]1OCc1ccccc1 [Compound 16, 6-benzamido-9-(6-deoxy-2,3,4-tri-O-benzyl-β-L-mannopyranosyl)purine] the “wavelength after shift induced” value was 345 nm. For C[C@@H]1O[C@@H](n2cnc3c(NC(=O)c4ccccc4)ncnc32)[C@H](OCc2ccccc2)[C@H](OCc2ccccc2)[C@H]1OCc1ccccc1 [Compound 15, 6-benzamido-9-(6-deoxy-2,3,4-tri-O-benzyl-α-L-mannopyranosyl)purine], the “wavelength after shift induced” value was 334 nm.
